{"sequences": {"note": "Chains of the proteins cited; added tags and fusions are not shown. Lines headed by an entry give the natural chain unless they say otherwise; changes in a name come on top.", "UniProt P14385": "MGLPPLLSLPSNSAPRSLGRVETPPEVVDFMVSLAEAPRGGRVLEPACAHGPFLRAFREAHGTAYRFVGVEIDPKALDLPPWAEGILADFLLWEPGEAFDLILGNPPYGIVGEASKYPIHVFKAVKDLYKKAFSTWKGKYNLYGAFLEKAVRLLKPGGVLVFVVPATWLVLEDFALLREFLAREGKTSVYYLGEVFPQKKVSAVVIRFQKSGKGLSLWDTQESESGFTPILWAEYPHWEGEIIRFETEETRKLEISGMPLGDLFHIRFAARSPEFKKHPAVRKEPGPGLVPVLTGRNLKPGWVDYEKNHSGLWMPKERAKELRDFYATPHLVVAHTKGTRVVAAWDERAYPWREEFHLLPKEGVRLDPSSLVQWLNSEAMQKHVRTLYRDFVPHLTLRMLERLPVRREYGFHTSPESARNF"}, "source": "patent US20070161007", "key": {"[1]": {"target": "T1, M.EcoRI DNA methyltransferase (UniProt P00472)", "T1 sequence (looked up, limits assumed)": "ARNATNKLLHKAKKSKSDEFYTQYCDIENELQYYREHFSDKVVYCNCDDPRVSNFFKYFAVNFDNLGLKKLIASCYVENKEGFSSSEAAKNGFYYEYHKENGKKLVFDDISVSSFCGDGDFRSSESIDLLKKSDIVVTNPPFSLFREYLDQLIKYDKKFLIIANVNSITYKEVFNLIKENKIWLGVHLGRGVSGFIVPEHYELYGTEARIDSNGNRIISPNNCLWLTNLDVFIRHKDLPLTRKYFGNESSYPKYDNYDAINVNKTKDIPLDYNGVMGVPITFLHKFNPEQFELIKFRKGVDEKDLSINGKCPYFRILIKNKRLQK", "assay": "activity assay", "conditions": "purified recombinant protein, protein details: New England Biolabs, label: 5'-32P on target strand"}, "[2]": {"target": "M.TaqI DNA methyltransferase (UniProt P14385)", "assay": "activity assay", "conditions": "purified recombinant protein, protein details: New England Biolabs, label: 5'-32P on target strand"}}, "note": "No signal at the amounts used counts as a negative. For some of these results: Tags and fusion partners may be left off the protein sequences shown.", "data": [{"sequence": "TGAATGAATTCGACCC / GGGTCGAATTCATTCAAA [M.EcoRI 16-mer duplex]", "values": [{"measurement": "activity on this sequence", "setting": "[1]; DPAGE shift, alkylation by cofactor analogs 3, 24a, 24b, 56, pH 7.4, EDTA, second slower adduct seen", "value": "active"}]}, {"sequence": "TGAATGAATTCGACCC / GGGTCGAATTCATTCAAA [M.EcoRI duplex premethylated with SAM]", "values": [{"measurement": "activity on this sequence", "setting": "[1]; N6-methyladenine at GAATTC (enzymatic), no alkylation by 56 (50 uM) after SAM premethylation, activity not binding, variant of M.EcoRI 16-mer duplex", "value": "not active"}]}, {"sequence": "TGAATCTCGAGCACCC / GGGTGCTCGAGATTCAAA [M.TaqI duplex premethylated with SAM]", "values": [{"measurement": "activity on this sequence", "setting": "[2]; N6-methyladenine at TCGA (enzymatic), no alkylation by 56 (50 uM) after SAM premethylation, activity not binding, variant of M.TaqI 16-mer duplex", "value": "not active"}]}, {"sequence": "TGAATCTCGAGCACCC / GGGTGCTCGAGATTCAAA [M.TaqI 16-mer duplex]", "values": [{"measurement": "activity on this sequence", "setting": "[2]; DPAGE shift, alkylation by cofactor analogs 3, 24a, 24b, 56, pH 6.0, 10 mM Mg(OAc)2, 37 C", "value": "active"}]}]}
